In paper PMC12084343 one finds binding data, which are given here for two substances.

No constants are given. Whether binding was seen depends on the method and setting. Binding seen in cells or lysates may run through a third protein. For some of these results: A result given as binding can be weak or reduced; the word gives no strength.

What all share (assay): co-IP; lysates of transfected S2 cells; lysis buffer 150 mM NaCl, 50 mM HEPES pH 7.5, 0.5% Triton X-100 with phosphatase and protease inhibitors; GFP- or Myc-tagged proteins taken with GFP-Trap or Myc-Trap agarose, western blot; in some panels Meru or Meru^RxL as a third protein, Cdk1/CycA co-expressed, or CycA RNAi
The target in one assay is T1, Cyclin A (Drosophila) (UniProt P14785).
T1 sequence: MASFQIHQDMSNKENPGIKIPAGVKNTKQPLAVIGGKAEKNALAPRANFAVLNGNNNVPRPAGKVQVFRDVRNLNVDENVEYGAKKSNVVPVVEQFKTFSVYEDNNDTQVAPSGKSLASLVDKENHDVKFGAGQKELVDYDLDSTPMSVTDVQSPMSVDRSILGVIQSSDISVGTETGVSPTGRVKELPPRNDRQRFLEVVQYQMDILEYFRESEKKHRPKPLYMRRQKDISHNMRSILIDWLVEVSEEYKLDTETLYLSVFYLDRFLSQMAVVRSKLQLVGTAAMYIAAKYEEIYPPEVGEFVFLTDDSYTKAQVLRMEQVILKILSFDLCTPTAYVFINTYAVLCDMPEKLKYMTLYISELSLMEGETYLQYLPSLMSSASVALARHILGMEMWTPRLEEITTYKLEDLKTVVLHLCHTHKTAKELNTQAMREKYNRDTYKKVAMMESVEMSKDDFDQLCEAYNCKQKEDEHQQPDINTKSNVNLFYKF

Another assay deals with T2, Cyclin B (Drosophila) (UniProt P20439).
T2 sequence: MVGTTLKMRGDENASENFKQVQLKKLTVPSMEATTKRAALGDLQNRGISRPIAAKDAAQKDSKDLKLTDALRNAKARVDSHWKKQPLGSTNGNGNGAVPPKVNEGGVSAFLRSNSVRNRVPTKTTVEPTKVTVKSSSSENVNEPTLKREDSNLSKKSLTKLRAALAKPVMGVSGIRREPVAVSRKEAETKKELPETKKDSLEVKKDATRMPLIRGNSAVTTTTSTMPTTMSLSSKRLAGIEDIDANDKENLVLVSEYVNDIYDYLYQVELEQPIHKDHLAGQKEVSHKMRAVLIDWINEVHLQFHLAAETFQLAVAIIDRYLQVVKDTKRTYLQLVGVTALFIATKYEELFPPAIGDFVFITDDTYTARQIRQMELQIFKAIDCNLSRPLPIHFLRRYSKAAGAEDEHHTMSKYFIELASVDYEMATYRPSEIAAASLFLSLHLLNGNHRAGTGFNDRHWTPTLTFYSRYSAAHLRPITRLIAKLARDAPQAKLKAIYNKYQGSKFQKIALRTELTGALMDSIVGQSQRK

For a further assay, the target named is T3, Cyclin E (Drosophila) (UniProt P54733).
T3 sequence: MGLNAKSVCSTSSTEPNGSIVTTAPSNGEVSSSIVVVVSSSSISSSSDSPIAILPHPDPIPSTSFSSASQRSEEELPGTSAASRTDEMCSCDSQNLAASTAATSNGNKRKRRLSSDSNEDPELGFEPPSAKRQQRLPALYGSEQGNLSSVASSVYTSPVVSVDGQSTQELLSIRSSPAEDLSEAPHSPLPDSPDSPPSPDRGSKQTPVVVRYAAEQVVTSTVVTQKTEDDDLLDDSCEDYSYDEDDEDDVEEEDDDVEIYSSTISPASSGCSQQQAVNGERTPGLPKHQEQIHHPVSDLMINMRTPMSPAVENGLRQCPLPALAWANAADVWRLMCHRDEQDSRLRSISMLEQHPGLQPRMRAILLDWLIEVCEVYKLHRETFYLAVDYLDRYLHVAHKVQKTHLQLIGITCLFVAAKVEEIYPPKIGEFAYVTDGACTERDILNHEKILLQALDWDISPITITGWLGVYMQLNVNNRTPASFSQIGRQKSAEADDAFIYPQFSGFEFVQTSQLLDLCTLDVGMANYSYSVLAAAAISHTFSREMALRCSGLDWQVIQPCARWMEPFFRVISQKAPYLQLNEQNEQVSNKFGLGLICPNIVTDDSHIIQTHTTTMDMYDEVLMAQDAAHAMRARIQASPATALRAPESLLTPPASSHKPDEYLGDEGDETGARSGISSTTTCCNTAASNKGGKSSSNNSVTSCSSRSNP

With “Meru (full-length, wild-type) (Drosophila)”, the binding entry was “binds” with Cyclin A (Drosophila), “binds weakly” in the assay with Cyclin B (Drosophila) and “no binding” with Cyclin E (Drosophila).

In the case of “Mud (1452–1961) (Drosophila) (domain or fragment)”, the binding entry with Cyclin A (Drosophila) is “no binding”.
